Experimental data: PMC2696103

Target: T1, GST-HMP-2 (C. elegans β-catenin homolog HMP-2 fused to GST) (C. elegans) (UniProt O44326)
T1 sequence: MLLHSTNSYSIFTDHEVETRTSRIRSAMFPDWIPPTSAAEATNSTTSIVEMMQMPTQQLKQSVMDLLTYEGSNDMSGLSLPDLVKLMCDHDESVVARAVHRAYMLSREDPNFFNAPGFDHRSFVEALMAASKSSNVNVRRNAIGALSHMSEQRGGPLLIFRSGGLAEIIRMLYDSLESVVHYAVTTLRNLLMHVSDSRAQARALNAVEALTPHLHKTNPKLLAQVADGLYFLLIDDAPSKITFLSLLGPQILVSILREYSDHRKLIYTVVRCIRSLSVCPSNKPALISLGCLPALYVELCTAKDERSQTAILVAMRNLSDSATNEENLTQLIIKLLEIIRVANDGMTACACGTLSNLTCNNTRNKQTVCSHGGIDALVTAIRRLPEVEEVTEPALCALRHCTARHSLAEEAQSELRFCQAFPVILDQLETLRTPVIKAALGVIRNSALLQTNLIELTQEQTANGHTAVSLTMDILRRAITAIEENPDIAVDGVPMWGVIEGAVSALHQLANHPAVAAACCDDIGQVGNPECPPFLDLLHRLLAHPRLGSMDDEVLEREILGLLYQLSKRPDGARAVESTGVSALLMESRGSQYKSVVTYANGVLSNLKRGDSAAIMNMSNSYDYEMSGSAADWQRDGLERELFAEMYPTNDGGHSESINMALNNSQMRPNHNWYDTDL
Experiment: pull-down; GST-fusion proteins on glutathione sepharose incubated with total worm protein extracts (lysis buffer: 50 mM Tris-HCl pH 7.4, 1% Triton-X 100, 10% glycerol, 150 mM NaCl, 1 mM NaF, 1 mM Na-orthovanadate, protease inhibitors); bound MAGI-1::GFP detected on Western blots with anti-GFP; only the target purified

Substance	binding
Full-length MAGI-1::GFP (long isoform of C. elegans MAGI-1 fused to GFP)	binds
MAGI-1ΔPDZ1-3::GFP (deletion mutant of MAGI-1 lacking PDZ1-3) (C. elegans)	binds

Results are given in words; binding and its absence hold for the method and conditions named. Binding seen in cells or lysates may run through a third protein. Binding can be weak; no strength is given. Sequences can lack the tags named with a protein.
